## Primary screen of a compound library

Sequences of proteins named here, by UniProt entry; tags and fusion partners are left off. Residues count along the entry.
UniProt Q4DA54, 1-478: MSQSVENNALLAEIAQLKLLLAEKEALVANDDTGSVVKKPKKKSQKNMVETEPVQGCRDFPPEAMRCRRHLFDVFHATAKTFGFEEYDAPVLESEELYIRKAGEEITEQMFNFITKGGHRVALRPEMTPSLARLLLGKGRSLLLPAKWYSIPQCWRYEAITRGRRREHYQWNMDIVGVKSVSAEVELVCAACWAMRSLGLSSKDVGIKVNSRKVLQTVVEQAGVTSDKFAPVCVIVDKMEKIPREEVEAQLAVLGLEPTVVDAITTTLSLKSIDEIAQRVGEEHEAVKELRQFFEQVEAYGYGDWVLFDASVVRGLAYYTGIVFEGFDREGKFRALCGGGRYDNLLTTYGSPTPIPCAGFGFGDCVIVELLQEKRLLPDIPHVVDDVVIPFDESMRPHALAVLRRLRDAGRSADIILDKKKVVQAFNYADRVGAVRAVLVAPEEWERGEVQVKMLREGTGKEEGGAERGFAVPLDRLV
UniProt I6X8D2, whole entry: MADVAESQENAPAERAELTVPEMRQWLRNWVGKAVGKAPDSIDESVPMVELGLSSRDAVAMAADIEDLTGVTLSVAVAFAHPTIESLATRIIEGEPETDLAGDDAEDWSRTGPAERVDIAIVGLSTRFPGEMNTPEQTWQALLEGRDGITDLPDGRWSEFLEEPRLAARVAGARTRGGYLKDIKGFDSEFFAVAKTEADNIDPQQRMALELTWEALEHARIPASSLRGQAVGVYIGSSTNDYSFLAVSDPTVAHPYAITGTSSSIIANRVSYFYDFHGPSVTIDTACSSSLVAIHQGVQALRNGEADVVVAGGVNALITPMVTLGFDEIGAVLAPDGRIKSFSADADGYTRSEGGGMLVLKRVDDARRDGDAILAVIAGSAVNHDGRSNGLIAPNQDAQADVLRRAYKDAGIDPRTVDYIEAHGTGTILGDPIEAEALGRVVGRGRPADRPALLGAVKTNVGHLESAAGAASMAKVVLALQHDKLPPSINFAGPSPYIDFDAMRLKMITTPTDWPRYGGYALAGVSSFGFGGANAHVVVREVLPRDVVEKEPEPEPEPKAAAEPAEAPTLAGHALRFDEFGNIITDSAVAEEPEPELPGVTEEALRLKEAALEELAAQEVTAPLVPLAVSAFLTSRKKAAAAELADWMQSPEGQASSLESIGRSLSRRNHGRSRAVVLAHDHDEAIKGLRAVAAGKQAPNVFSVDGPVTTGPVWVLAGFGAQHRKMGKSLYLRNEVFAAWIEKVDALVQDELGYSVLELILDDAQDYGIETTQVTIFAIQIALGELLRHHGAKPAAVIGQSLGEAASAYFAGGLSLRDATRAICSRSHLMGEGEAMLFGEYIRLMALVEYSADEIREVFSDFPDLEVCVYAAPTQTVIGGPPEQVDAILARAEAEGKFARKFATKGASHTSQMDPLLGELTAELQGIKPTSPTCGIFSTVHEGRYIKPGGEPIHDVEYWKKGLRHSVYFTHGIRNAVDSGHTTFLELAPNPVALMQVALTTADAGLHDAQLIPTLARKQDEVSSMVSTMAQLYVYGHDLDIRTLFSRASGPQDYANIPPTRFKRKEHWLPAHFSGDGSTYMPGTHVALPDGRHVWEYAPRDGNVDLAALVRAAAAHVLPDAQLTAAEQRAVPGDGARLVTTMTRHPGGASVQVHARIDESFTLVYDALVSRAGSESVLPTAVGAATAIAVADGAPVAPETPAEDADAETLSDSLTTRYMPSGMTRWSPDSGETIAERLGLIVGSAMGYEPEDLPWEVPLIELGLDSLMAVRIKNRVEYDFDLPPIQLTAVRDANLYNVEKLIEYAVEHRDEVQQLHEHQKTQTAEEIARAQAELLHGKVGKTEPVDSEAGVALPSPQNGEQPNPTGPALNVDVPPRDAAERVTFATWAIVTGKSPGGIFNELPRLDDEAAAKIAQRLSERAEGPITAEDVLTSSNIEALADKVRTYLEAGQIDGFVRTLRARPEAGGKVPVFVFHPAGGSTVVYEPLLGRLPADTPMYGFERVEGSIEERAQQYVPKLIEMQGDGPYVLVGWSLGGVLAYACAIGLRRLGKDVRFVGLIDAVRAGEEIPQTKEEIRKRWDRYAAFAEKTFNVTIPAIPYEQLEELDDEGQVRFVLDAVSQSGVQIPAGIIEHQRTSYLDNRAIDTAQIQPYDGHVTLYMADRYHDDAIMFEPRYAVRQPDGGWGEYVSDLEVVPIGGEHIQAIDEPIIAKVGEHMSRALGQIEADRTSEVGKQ
UniProt P9WNZ1, whole entry: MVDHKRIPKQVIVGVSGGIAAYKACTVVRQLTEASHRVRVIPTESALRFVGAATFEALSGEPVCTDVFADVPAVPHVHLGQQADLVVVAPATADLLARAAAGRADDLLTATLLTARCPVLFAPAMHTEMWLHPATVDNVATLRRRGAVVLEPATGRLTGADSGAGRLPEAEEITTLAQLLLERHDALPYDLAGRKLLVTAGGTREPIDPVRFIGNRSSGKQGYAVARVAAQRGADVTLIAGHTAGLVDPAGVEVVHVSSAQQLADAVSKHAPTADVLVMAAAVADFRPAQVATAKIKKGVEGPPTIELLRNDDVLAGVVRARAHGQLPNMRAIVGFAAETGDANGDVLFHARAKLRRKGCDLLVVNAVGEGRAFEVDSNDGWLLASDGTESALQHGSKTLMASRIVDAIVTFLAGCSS
UniProt Q8IDJ8, 1-583: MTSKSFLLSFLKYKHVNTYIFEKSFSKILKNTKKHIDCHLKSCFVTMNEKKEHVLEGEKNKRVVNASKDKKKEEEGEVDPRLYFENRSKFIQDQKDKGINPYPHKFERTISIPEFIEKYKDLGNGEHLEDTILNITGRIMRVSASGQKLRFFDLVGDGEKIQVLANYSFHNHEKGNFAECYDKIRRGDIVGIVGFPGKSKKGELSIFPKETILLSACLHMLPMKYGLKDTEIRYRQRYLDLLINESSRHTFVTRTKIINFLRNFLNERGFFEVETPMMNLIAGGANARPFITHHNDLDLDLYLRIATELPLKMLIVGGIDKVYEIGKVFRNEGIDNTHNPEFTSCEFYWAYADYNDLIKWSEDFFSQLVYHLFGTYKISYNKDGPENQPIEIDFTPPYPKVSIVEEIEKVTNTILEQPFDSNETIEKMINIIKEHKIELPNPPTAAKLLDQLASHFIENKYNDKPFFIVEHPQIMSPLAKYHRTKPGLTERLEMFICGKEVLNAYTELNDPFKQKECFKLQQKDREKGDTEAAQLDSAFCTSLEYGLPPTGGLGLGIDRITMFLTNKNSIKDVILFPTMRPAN
UniProt P9WFT3, whole entry: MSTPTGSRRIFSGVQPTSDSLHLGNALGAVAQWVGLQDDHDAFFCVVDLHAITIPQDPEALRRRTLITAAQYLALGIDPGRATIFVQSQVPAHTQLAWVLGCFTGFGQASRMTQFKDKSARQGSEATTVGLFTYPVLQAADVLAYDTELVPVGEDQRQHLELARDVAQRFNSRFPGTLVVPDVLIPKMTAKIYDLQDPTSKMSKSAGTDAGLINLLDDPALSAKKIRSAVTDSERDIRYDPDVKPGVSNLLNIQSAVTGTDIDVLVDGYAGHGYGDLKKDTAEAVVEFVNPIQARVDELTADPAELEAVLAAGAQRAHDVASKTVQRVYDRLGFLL

Source: ChEMBL document CHEMBL3988442, “University of Dundee, Small-Polar-MMV Screening Library” (2021).

Each number is a percent effect as filed.
How 0% and 100% were set is not recorded. Most values in the screen are low, and negative values occur.
This is an unselected part of the compounds tested.
Two or more numbers in one place are separate tests of the same structure; such repeats can differ widely.

TcHisRS: 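Enzyme assay of histidyl-tRNA synthetase; the read-out is not stated. Target: Histidine-tRNA ligase, Trypanosoma cruzi CL Brener (UniProt Q4DA54). Tested at 30 µM. The record gives no direction; compounds that gave an IC50 in retests scored well above the rest, so higher reads as stronger inhibition. Size under these conditions: about 69,000 compounds, about 31 of them at 50% or above in at least one test.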
Pks13 thioesterase: 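Enzyme assay of the thioesterase domain of polyketide synthase 13; the read-out is not stated. Target: Polyketide synthase Pks13, Mycobacterium tuberculosis (UniProt I6X8D2). Compounds at 30 µM. Higher reads as stronger inhibition (inferred from which compounds were picked for retests). About 67,000 compounds were tested under these conditions; 0.46% (about 300) showed 50% or more at least once.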
CoaBC: 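Enzyme assay of CoaBC with a phosphate dye (Biomol Green) read at 650 nm. Target: Coenzyme A biosynthesis protein CoaBC, Mycobacterium tuberculosis (UniProt P9WNZ1). Compounds at 30 µM. Higher reads as stronger inhibition, judged from the few compounds that gave an IC50. Most strong results did not repeat in a second test. About 67,000 compounds were tested under these conditions; 0.06% (about 40) showed 50% or more at least once.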
Leishmania in macrophages: 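Cell assay of Leishmania donovani living inside macrophages; the read-out is not stated. Compounds at 30 µM. Direction is inferred from retests: higher values go with stronger inhibition. About 69,000 compounds were tested under these conditions; 1.5% (about 1,000) showed 50% or more at least once.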
PfKRS1: 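Lysine-tRNA ligase, Plasmodium falciparum 3D7 (UniProt Q8IDJ8). Enzyme assay of the cytosolic lysyl-tRNA synthetase in 384-well plates, read by luminescence. Concentration: 30 µM. Direction is inferred from only a few compounds that gave an IC50; most scored high, so higher reads as stronger inhibition. Of about 69,000 compounds tested this way, about 49 (0.071%) reached 50% or more in at least one test.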
MtTrpRS: 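Enzyme assay of tryptophanyl-tRNA synthetase; the read-out is not stated. Target: Tryptophan-tRNA ligase, Mycobacterium tuberculosis (UniProt P9WFT3). Concentration: 10 µM. Higher most likely means stronger inhibition; the record gives no direction and few retests gave an IC50. Of about 65,000 compounds tested this way, about 64 (0.098%) reached 50% or more in at least one test.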

{"structure": "Cc1csc(C2(NC(=O)NCCN3CCOCC3)CCCC2)n1", "TcHisRS": 6.404, "CoaBC": 6.962, "Leishmania in macrophages": 29.46, "PfKRS1": 8.272, "MtTrpRS": -2.414}
{"structure": "CCCc1cc(C(=O)N(C)Cc2cccc3cnccc23)n(C)n1", "TcHisRS": -11.22, "Pks13 thioesterase": -25.21, "CoaBC": 7.879, "Leishmania in macrophages": 9.069, "PfKRS1": 4.705, "MtTrpRS": -2.29}
{"structure": "CCn1cc(CN2CCC(c3[nH]ncc3S(C)(=O)=O)C2)cn1", "stereo": "configuration not stated", "TcHisRS": 8.791, "CoaBC": -3.883, "Leishmania in macrophages": "10.93 and 19.38", "PfKRS1": 2.267}
{"structure": "COCC(=O)N1CCc2ccccc2C12CCNCC2", "TcHisRS": 3.333, "Pks13 thioesterase": -32.95, "CoaBC": -3.171, "PfKRS1": 2.493}
{"structure": "Cn1c2c(c(=O)n1C)CN(C(=O)c1ccncc1F)CCC2", "TcHisRS": 6.533, "Pks13 thioesterase": 3.104, "CoaBC": -3.342, "Leishmania in macrophages": 4.697, "PfKRS1": -0.08754}
{"structure": "Cc1cccc(CN2C(=O)CCC23CCN(Cc2nccn2C)CC3)n1", "TcHisRS": 7.619, "Pks13 thioesterase": -23.38, "CoaBC": -5.795, "Leishmania in macrophages": 10.44, "PfKRS1": 3.68, "MtTrpRS": -6.826}
{"structure": "O=C(O)C(F)(F)F.[H][C@@]12CCCO[C@]1([H])[C@H](n1cccn1)CN2Cc1cccs1", "Leishmania in macrophages": 8.821}
{"structure": "O=C(C1CSc2ccccc2O1)N1CCN(CCO)CC1", "stereo": "configuration not stated", "TcHisRS": 5.882, "Pks13 thioesterase": -33.24, "CoaBC": 5.423, "Leishmania in macrophages": 28.2, "PfKRS1": 3.475, "MtTrpRS": 4.757}
{"structure": "COc1cccc(Cc2nnc(SC3CCOC3=O)o2)c1", "stereo": "configuration not stated", "TcHisRS": 4.564, "Pks13 thioesterase": -5.063, "CoaBC": -9.375, "Leishmania in macrophages": 6.018, "PfKRS1": 2.024, "MtTrpRS": 1.243}
{"structure": "O=C(Cc1cccs1)N1CCCCC1c1ccn2ccnc2n1", "stereo": "configuration not stated", "TcHisRS": 8.889, "Pks13 thioesterase": 18.3, "CoaBC": 6.78, "Leishmania in macrophages": "2.229 and 11.57", "PfKRS1": 3.297}
{"structure": "CC(=O)Nc1cccc(CNC(=O)N(C)Cc2ccccc2)c1", "TcHisRS": -1.01, "Pks13 thioesterase": -29.25, "CoaBC": 2.917, "Leishmania in macrophages": -10.63, "PfKRS1": 4.605, "MtTrpRS": 3.186}
{"structure": "Cc1noc(C)c1CN1CCOCC12CCN(c1cnccn1)CC2.O=C(O)C(F)(F)F", "Leishmania in macrophages": 60.72}
{"structure": "Cc1cn2c(CN(C)C(=O)c3ncoc3C)c(C)nc2s1", "TcHisRS": 8.108, "Pks13 thioesterase": -19.06, "CoaBC": 6.818, "Leishmania in macrophages": 23.85, "PfKRS1": 3.7, "MtTrpRS": -1.041}
{"structure": "CC(C)c1nnc2sc(CC3CCS(=O)(=O)CC3)nn12", "TcHisRS": 2.646, "Pks13 thioesterase": -4.638, "CoaBC": 4.481, "Leishmania in macrophages": 21.73, "PfKRS1": 7.607, "MtTrpRS": -0.892}
{"structure": "[H][C@@]12CN(Cc3ccoc3)CCO[C@]1([H])CN(C(=O)CC1CCCC1)C2", "Leishmania in macrophages": 29.05}
{"structure": "CCc1nnc(CN2CCC(C3CCCCCN3C(C)=O)CC2)o1", "stereo": "configuration not stated", "TcHisRS": 3.448, "Pks13 thioesterase": 11.15, "CoaBC": -7.2, "PfKRS1": -0.1039, "MtTrpRS": 3.131}
{"structure": "CCn1nc2nc(SCC(=O)O)cc(C(F)F)c2c1C", "TcHisRS": -3.468, "Pks13 thioesterase": 23.92, "CoaBC": 0.8589, "Leishmania in macrophages": 23.17, "PfKRS1": 3.63}